# Reference: US12344637B2, “Virus-inspired compositions and methods of redirecting preexisting immune responses using the same for treatment of cancer” (priority 2020, dated 2025)
# Experiment: Percent peptide conjugation by SDS-PAGE densitometry
# Conditions: 5:1 reducing agent to L1, 10:1 peptide to L1
molecule,measurement,value
MPV.10.34.d capsid backbone (protein) MLYLPPTTPVAKVQSTDEYVYPTSLFCHAHTDRLLTVGHPFFSVIDNDKVTVPKVSGNQYRVFRLKFPDPNKFALPQKDFYDPEKERLVWRLRGLEIGRGGPLGIGTTGHPLFNKLGDTENPNKYQQGSKDNRQNTSMDPKQTQLFIVGCEPPTGEHWDVAKPCGALEKGDCPPIQLVNSVIEDGDMCDIGFGNMNFKELQQDRSGVPLDIVSTRCKWPDFLKMTNEAYGDKMFFFGRREQVYARHFFTRNGSVGEPIPNSVSPSDFYYAPDSTQDQKTLAPSVYFGTPSGSLVSSDGQLFNRPFWLQRAQGNNNGVCWHNELFVTVVDNTRNTNFTISQQTNTPNPDTYDSTNFKNYLRHVEQFELSLIAQLCKVPLDPGVLAHINTMNPTILENWNLGFVPPKEREDPYKGLIFWEVDLTERFSQDLDQFALGRKFLYQ,conjugation efficiency,above 50%
